# Laboratory results from the supplement of paper PMC10338343.
# ± gives the standard deviation. This is one part of the list. Many entries were measured with a wide error.
# Tested on: EfPiwi piRISC loaded with L1MC piRNA (26 nt)
# Experiment: pre-steady-state target cleavage rate (min^-1); guide: L1MC piRNA 5'p-UAACUAAAUACUAUGCAAGCUGUAGG; MIWI and MILI are mouse PIWI proteins and EfPiwi is from a freshwater sponge; tags in brackets are library labels; higher = faster piRNA-guided slicing of the target
# Conditions: auxiliary factor: 500 nM Ephydatia muelleri Gtsf1
# Method in brief: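 With or without 500 nM GTSF1 partner protein, 1 nM active affinity-purified piRISC carrying one synthetic guide was mixed with 0.1 nM transcribed, DNA-blocked target RNA library in HEPES–potassium acetate buffer at 33 °C for 0–8 or 0–960 min. Uncleaved targets were sequenced and normalised to depth and to weakly complementary targets, three trials were pooled, and k3 was capped at 0.0001 min^-1. The pre-steady-state cleavage rate came from a burst-and-steady-state fit.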
row,Sequence,pre-steady-state target cleavage rate
1,UCCUGCUACAGCUUGCGUAGUAUUUAGUUA,0.0375 ± 0.011
2,UCCUCCUACAGCUAGCAUAGUAUAUAGUUA,0.00495 ± 0.0026
3,UCCUCCUACAGCUUGCAAAGUAUAUAGUUA,0.008 ± 0.0043
4,UCCUCCUACACCUUGCAUAGUAUUUAGUUA,0.0762 ± 0.025
5,UCCUGGAUGUGCUUGCAUAGUAUUUAGUUA [g2:g20:cont:t1A],0.015 ± 0.0046
6,UCCUGGUACAGCUUGAUAGUAUUUAGUUA,0.00334 ± 0.004
7,UCCUGGAACAACUUGCAUAGUAUUUAGUUA,0.0809 ± 0.023
8,UCCUGGAACAGCAUUGCAUAGUAUUUAGUUA,0.015 ± 0.0044
9,UCCUGGUACAGCUUGCAUAGUAUUAAGUUA,0.00521 ± 0.0021

# Single values from the entries so far.
# Value for UCCUGGAUGUGCUUGCAUAGUAUUUAGUUA [g2:g20:cont:t1A] under pre-steady-state target cleavage rate: 0.015 ± 0.0046
# Value for UCCUGGUACAGCUUGAUAGUAUUUAGUUA under pre-steady-state target cleavage rate: 0.00334 ± 0.004

# Same assay, conditions: auxiliary factor: none (no Gtsf1)
row,Sequence,pre-steady-state target cleavage rate
1,UCCUGGAACAGCCUUGCAUAGUAUUUAGUUA,0.000943 ± 0.01
2,UCCUGGAUGAGCUUGCAUUCAUAAAUCAAA [g13:g21:cont:t1A],0.000217 ± 0.031
3,UCCUGGAAGAGCUUGCAUAGUAUAUAGUUA,0.00208 ± 0.0053
4,UCCUGGAUGAGCUUGCAUAUUAUUUAGUUA,0.0026 ± 0.0056
5,UCCUGGAUGUCGAACCAAAGUAUAUAGUUA,0.000122 ± 0.051
6,UCCUGGAUGGGCUUGCAUAGUAUUUAGUUA,0.000437 ± 0.029
7,UCCUGGAUGUCGAACGUUAGUCUUUAGUUA,0.000117 ± 0.039
